Among the data in PMC5380967 are binding values, retold here.

These are yes or no findings as the source states them, for the method shown. Binding calls can cover weak binding; strength is not graded here. Where a sequence is shown, tags or fusion partners need not be part of it.

For the test, the target named is GST-tagged CEP131 N-terminal region (human). Nature of the test: pull-down; GST-tagged CEP131 (full length or deletion mutants) purified from bacteria with His-tagged USP9X deletion mutants purified from Sf9 cells; which was held on beads is not stated; both purified.

B1: His-tagged USP9X/M (domain or fragment, UniProt Q93008 611-1553)
chain: ALVTLVAENLATYMESMRLYARDHEDYDPQTVRLGSRYSHVQEVQERLNFLRFLLKDGQLWLCAPQAKQIWKCLAENAVYLCDREACFKWYSKLMGDEPDLDPDINKDFFESNVLQLDPSLLTENGMKCFERFFKAVNCREGKLVAKRRAYMMDDLELIGLDYLWRVVIQSNDDIASRAIDLLKEIYTNLGPRLQVNQVVIHEDFIQSCFDRLKASYDTLCVLDGDKDSVNCARQEAVRMVRVLTVLREYINECDSDYHEERTILPMSRAFRGKHLSFVVRFPNQGRQVDDLEVWSHTNDTIGSVRRCILNRIKANVAHTKIELFVGGELIDPADDRKLIGQLNLKDKSLITAKLTQISSNMPSSPDSSSDSSTGSPGNHGNHYSDGPNPEVESCLPGVIMSLHPRYISFLWQVADLGSSLNMPPLRDGARVLMKLMPPDSTTIEKLRAICLDHAKLGESSLSPSLDSLFFGPSASQVLYLTEVVYALLMPAGAPLADDSSDFQFHFLKSGGLPLVLSMLTRNNFLPNADMETRRGAYLNALKIAKLLLTAIGYGHVRAVAEACQPGVEGVNPMTQINQVTHDQAVVLQSALQSIPNPSSECMLRNVSVRLAQQISDEASRYMPDICVIRAIQKIIWASGCGSLQLVFSPNEEITKIYEKTNAGNEPDLEDEQVCCEALEVMTLCFALIPTALDALSKEKAWQTFIIDLLLHCHSKTVRQVAQEQFFLMCTRCCMGHRPLLFFITLLFTVLGSTARERAKHSGDYFTLLRHLLNYAYNSNINVPNAEVLLNNEIDWLKRIRDDVKRTGETGIEETILEGHLGVTKELLAFQTSEKKFHIGCEKGGANLIKELIDDFIFPASNVYLQYMRNGELPAEQAIPVCGSPPTINAGFELLVALAVGCVRNLKQIVDSLTEMYYIGTAITTCEALTEWEYLPPVGPRPP
Take B1: the binding result is “binds”.
